{
  "sequences": {"note": "Protein sequences, listed by entry. Tags and fused reporters are not part of them.", "UniProt P18248": "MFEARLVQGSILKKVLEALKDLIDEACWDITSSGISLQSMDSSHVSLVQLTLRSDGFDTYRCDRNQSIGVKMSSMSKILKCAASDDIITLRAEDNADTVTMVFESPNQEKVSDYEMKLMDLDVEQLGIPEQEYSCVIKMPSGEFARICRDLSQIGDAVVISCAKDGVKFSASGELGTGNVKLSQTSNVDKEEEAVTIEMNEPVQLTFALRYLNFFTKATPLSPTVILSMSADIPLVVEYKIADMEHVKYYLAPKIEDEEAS"},
  "source": "paper PMC9943068",
  "key": {"[1]": {"target": "T1, GST-PAF15 triple mutant (SAKA) (Xenopus) (UniProt Q5HZL4)", "T1 sequence": "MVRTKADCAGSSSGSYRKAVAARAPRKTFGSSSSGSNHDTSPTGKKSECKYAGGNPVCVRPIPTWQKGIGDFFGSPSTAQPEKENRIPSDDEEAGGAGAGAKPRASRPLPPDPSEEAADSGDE", "experiment": "pull-down; GST or GST-PAF15 proteins immobilized on Glutathione Sepharose 4B, incubated with interphase egg extracts 2 hr at 4°C; washed with CPB, 2% sucrose, 0.1% Triton X-100; immunoblotting; only the target purified"}, "[2]": {"target": "T2, GST-PAF15 wild-type (Xenopus PAF15) (Xenopus) (UniProt Q5HZL4)", "T2 sequence": "T1 sequence with A79S, A97S, A101K, A105K", "experiment": "pull-down; GST or GST-PAF15 proteins immobilized on Glutathione Sepharose 4B, incubated with interphase egg extracts 2 hr at 4°C; washed with CPB, 2% sucrose, 0.1% Triton X-100; immunoblotting; only the target purified"}},
  "note": "Positions count from the first letter of the chain named. Results are given in words; binding and its absence hold for the method and conditions named. Binding seen in cells or lysates may run through a third protein. Some binding calls cover weakened binding; strength is not graded here. Sequences can lack the tags named with a protein.",
  "data": [
    {"substance": "PCNA (proliferating cell nuclear antigen), endogenous Xenopus (from UniProt P18248 1-261)", "values": [
      {"measurement": "binding", "setting": "[1]", "result": "binds"},
      {"measurement": "binding", "setting": "[2]", "result": "binds"}
    ]}
  ]
}
